Measurements reported in article PMC11183095.
No constants are given. Whether binding was seen depends on the method and setting. For some of these results: Binding seen in cells or lysates may run through a third protein. Some binding calls cover weakened binding; strength is not graded here.

The chains behind the UniProt entries cited, without tags or fusion partners. Where a name states a change or a piece, a line headed by the entry shows the natural chain unless it says otherwise. A line that says so, or that is headed by a name, gives the form on record, which may keep a tag or linker.
UniProt P14618: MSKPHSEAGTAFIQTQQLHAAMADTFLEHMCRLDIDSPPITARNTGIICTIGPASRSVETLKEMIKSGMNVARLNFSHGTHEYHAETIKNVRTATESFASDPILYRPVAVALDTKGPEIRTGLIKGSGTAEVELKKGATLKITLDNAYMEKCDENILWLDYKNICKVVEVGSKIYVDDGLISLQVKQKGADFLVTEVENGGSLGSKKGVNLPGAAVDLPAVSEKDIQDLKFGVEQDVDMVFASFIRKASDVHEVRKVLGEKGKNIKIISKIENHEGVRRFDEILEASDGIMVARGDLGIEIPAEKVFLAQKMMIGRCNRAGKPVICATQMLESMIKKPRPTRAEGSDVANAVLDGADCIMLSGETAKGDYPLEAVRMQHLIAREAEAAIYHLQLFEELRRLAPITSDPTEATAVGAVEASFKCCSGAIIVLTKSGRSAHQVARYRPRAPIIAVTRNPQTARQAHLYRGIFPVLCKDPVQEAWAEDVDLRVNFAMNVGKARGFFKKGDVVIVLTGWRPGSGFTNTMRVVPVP
Pyruvate kinase M1 (PKM1), endogenous (P14618-2, form named): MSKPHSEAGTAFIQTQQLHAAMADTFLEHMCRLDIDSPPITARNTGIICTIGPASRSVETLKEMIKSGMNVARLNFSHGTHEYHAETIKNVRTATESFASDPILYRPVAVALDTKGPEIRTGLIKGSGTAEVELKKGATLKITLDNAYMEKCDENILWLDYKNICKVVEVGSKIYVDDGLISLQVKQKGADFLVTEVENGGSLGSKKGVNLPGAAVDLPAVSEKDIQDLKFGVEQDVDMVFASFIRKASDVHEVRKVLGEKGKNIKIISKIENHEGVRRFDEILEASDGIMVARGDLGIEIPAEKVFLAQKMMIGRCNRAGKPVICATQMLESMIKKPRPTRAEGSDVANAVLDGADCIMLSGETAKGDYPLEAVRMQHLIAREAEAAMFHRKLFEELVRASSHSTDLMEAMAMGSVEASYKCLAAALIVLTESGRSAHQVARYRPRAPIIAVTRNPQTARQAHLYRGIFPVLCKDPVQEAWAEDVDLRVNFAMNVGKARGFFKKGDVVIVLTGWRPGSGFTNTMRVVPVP
UniProt P18669: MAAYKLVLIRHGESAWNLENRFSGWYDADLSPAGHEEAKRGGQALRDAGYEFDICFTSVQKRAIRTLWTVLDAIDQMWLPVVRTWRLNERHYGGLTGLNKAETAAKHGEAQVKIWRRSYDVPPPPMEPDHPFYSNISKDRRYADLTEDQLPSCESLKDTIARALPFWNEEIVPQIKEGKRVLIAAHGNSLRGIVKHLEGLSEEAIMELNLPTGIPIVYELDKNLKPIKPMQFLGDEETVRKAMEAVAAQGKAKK
UniProt P15531: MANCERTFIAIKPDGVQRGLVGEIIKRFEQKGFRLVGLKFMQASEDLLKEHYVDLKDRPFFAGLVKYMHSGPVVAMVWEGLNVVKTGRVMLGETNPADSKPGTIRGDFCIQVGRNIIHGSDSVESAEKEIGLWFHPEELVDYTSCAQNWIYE
UniProt P22392: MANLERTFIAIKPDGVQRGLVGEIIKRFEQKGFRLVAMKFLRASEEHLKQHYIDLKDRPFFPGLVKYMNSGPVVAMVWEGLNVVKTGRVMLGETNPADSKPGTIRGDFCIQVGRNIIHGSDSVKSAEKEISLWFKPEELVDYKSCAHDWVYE
UniProt P06733: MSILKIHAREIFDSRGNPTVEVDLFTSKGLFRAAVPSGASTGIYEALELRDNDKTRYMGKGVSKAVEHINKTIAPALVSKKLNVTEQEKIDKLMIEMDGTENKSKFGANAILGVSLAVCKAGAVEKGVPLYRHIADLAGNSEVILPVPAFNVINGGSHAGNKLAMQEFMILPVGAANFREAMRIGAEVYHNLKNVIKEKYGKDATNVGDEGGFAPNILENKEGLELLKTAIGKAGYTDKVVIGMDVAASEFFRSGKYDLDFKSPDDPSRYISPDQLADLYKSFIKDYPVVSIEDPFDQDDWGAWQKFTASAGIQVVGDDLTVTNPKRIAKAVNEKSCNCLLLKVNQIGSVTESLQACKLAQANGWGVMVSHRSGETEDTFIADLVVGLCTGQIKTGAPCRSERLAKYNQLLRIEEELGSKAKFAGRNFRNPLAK

Assays:
Flag-PKM2 K422R (human) = Flag-PKM2 K422R (human) (UniProt P14618); assay: cross-linking; whole-cell lysates (200 μg/mL) cross-linked with 1% formaldehyde for 20 min, PKM2 oligomer states by western blot
[1] = target: Phosphoglycerate mutase 1 (PGAM1), endogenous (human (endogenous in A549)) (UniProt P18669); assay: co-IP; anti-PGAM1 immunoprecipitation from endogenous PKM2-depleted A549 transfected with Flag-PKM2 or its mutants for 48 h, western blot for Flag
[2] = target: Phosphoglycerate mutase 1 (PGAM1), endogenous (human (endogenous in A549)) (UniProt P18669); assay: co-IP; anti-PGAM1 immunoprecipitation from whole-cell lysates of A549 (also H1299, MCF-7, MDA-MB-231, AGS, Jurkat tumour cells; with or without EGF), western blot; IgG as negative control
[3] = target: Recombinant His-PGAM1 (human) (UniProt P18669); assay: pull-down; recombinant His-PGAM1 immobilised on Ni-beads, mixed with recombinant GST-PKM2 or GST-ENO1; eluate analysed by western blot; both purified

binding [1]	binding [2]	Substance	other results
binds		Flag-PKM2 R399E/K270M (from UniProt P14618 1-531) (enzyme)	
binds		Flag-PKM2 wild type (from UniProt P14618 1-531) (enzyme)	
	no binding	Nucleoside diphosphate kinase 1 (NME1), endogenous (from UniProt P15531 1-152) (enzyme)	
	no binding	Nucleoside diphosphate kinase 2 (NME2), endogenous (from UniProt P22392 1-152) (enzyme)	

More lines, now with the values behind:

Substance	binding [1]	binding [2]	other results
Flag-PKM2 K422R (from UniProt P14618 1-531) (enzyme)			binding (Flag-PKM2 K422R (human)): binds
Flag-PKM2 R399E (from UniProt P14618 1-531) (enzyme)	binds		
Flag-PKM2 Y105E (from UniProt P14618 1-531) (enzyme)	binds		
Flag-PKM2 Y105E/K270M (from UniProt P14618 1-531) (enzyme)	binds		
Pyruvate kinase M1 (PKM1), endogenous (from UniProt P14618-2 1-531) (enzyme)		no binding	
Recombinant GST-ENO1 (from UniProt P06733 1-434) (enzyme)			binding [3]: no binding
